Results are given in words; binding and its absence hold for the method and conditions named. In cells and extracts the contact can be indirect. A yes stands for co-enrichment or nearness to the bait. Other partners may have been found. Each block holds one molecule with its values, some of them ahead of it.
Target: T1, Neuronal pentraxin 1, endogenous in mouse cortical synaptosomes (mouse (endogenous in cortical synaptosomes)) (UniProt Q62443)
T1 sequence: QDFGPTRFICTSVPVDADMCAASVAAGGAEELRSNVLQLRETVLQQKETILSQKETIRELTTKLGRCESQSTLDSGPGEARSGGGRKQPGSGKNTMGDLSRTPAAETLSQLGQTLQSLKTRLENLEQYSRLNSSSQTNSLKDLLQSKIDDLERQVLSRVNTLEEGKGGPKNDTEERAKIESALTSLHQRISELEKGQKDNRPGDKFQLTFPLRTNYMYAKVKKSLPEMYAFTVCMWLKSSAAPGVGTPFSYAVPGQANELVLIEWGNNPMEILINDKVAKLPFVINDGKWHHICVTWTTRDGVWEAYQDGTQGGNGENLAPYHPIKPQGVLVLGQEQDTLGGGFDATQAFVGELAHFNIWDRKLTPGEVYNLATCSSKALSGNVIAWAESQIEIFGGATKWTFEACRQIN
Experiment: affinity purification with mass spectrometry; co-immunoprecipitation from mouse cortical synaptosome lysate (TBS, 1% Triton X-100, 1 mM CaCl2, 1 mM MgCl2, 4 °C) with anti-NP1 or anti-C1qA antibody and Protein A/G Sepharose beads; whole gel lanes identified by HPLC-MS/MS; isotype control antibodies

Chains of the proteins cited; added tags and fusions are not shown. Residues count along the entry.
UniProt Q9QYS2, residues 23-879: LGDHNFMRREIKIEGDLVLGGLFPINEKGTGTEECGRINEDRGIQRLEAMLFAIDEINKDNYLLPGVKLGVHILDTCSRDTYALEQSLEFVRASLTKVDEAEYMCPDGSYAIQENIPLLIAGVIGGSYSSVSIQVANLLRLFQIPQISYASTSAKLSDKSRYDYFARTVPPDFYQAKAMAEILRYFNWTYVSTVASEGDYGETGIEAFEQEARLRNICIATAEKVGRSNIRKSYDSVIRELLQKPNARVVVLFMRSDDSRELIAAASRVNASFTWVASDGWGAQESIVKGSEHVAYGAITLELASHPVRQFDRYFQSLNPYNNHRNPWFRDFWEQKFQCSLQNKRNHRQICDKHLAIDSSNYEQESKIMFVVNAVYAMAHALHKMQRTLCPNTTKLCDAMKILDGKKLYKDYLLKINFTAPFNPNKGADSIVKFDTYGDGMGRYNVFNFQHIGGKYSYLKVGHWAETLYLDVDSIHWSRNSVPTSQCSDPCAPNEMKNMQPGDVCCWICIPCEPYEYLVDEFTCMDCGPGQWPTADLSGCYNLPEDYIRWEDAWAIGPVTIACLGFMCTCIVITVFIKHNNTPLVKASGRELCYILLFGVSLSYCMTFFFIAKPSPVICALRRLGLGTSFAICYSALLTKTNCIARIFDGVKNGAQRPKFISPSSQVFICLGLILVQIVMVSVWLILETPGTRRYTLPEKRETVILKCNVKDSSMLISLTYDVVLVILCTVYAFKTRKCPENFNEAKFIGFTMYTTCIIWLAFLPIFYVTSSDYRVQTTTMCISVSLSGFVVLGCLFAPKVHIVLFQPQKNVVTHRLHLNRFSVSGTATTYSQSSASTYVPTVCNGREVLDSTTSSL

binding: binds
Molecule: Glutamate receptor Grm3, endogenous in mouse cortical synaptosomes (from UniProt Q9QYS2 23-879)

binding: binds
B1: Neuronal pentraxin 2, endogenous in mouse cortical synaptosomes (protein, UniProt O70340 15-429)
chain: AGRAQDSPIPGSRFVCTALPPEAARAGCPLPAMPMQGGALSPEEELRAAVLQLRETVVQQKETLGAQREAIRELTGKLARCEGLAGGKARGTGKDTMGDLPRDPGHVVEQLSRSLQTLKDRLESLELQLRTNVSNAGLPSDFREVLQRRLGELERQLLRKVAELEDEKSLLHNETSAHRQKTESTLNALLQRVTELERGNSAFKSPDAFKVSLPLRTNYLYGKIKKTLPELYAFTICLWLRSSASPGIGTPFSYAVPGQANEIVLIEWGNNPIELLINDKVAQLPLFVSDGKWHHICITWTTRDGMWEAFQDGEKLGTGENLAPWHPIKPGGVLILGQEQDTVGGRFDATQAFVGELSQFNIWDRVLRAQEIINIANCSTNMPGNIIPWVDNNVDVFGGASKWPVETCEERLLDL

binding: binds
B2: Neuronal pentraxin receptor, endogenous in mouse cortical synaptosomes (receptor, UniProt Q99J85 1-493)
chain: MKFLAVLLAAGMLAFLGAVICIIASVPLAASPARALPGGTDNASAASAAGGSGPQRSLSALHSAGGSAGPSVLPGEPAASVFPPPPVPLLSRFLCTPLAAACPSGAEQGDAAGERAELLLLQSTAEQLRQTALQQEARIRADRDTIRELTGKLGRCESGLPRGLQDAGPRRDTMADGAWDSPALLLELEDAVRALRDRIERIEQELPARGNLSSAPAPAMPTALHSKMDELECQLLAKVLALEKERAALSHGSHQQRQEVEKELNALQGRVAELEHGSSAYSPPDAFKVSIPIRNNYMYARVRKALPELYAFTACMCVRSRSGGSGQGTPFSYSVPGQANEIVLLEAGLEPMELLINDKVAQLPLSLKDSNWHHICISWTTRDGLWSAYQDGELRGSGENLAAWHPIKPHGILILGQEQDTLGGRFDATQAFVGDIAQFNLWDHALTPAQVLGMANCTGPLMGNVLPWEDKLVEAFGGAKKAAFDVCKGRAKA

— PMC7897678 (Frontiers in Immunology, 2020)
